Article PMC11253597
These are yes or no findings as the source states them, for the method shown. In cells and extracts the contact can be indirect.

Experiments:
[1] = biological target: translocated SseM^V103A (Salmonella enterica serovar Typhimurium strain 12023); assay: co-IP; HeLa cells infected with S. Typhimurium for 14.5 h, then MG132 for 3 h; lysate in buffer A (50 mM Tris pH 7.5, 150 mM NaCl, 0.5% sodium deoxycholate, 1% Triton X-100, 1 mM EDTA) precipitated with rabbit anti-SseM antibody on Protein G agarose; immunoblot
[2] = biological target: GFP::SseM^T101A (Salmonella enterica serovar Typhimurium strain 12023); assay: co-IP; GFP-trap agarose on lysates of HEK293 cells transiently transfected (16 h) with GFP-tagged SseM variants; immunoblot for endogenous β-2-syntrophin and α-dystrobrevin
[3] = biological target: GFP::SseM^V103A (Salmonella enterica serovar Typhimurium strain 12023); assay: as above

Measured: binding

B1: α-dystrobrevin (protein, UniProt Q9Y4J8 1-743)
chain: MIEDSGKRGNTMAERRQLFAEMRAQDLDRIRLSTYRTACKLRFVQKKCNLHLVDIWNVIEALRENALNNLDPNTELNVSRLEAVLSTIFYQLNKRMPTTHQIHVEQSISLLLNFLLAAFDPEGHGKISVFAVKMALATLCGGKIMDKLRYIFSMISDSSGVMVYGRYDQFLREVLKLPTAVFEGPSFGYTEQSARSCFSQQKKVTLNGFLDTLMSDPPPQCLVWLPLLHRLANVENVFHPVECSYCHSESMMGFRYRCQQCHNYQLCQDCFWRGHAGGSHSNQHQMKEYTSWKSPAKKLTNALSKSLSCASSREPLHPMFPDQPEKPLNLAHIVDTWPPRPVTSMNDTLFSHSVPSSGSPFITRSSPPKDSEVEQNKLLARAAPAFLKGKGIQYSLNVADRLADEHVLIGLYVNMLRNNPSCMLESSNRLDEEHRLIARYAARLAAESSSSQPPQQRSAPDISFTIDANKQQRQLIAELENKNREILQEIQRLRLEHEQASQPTPEKAQQNPTLLAELRLLRQRKDELEQRMSALQESRRELMVQLEGLMKLLKTQGAGSPRSSPSHTISRPIPMPIRSASACSTPTHTPQDSLTGVGGDVQEAFAQSSRRNLRNDLLVAADSITNTMSSLVKELNSEVGSETESNVDSEFARTQFEDLVPSPTSEKAFLAQIHARKPGYIHSGATTSTMRGDMVTEDADPYVQPEDENYENDSVRQLENELQMEEYLKQKLQDEAYQVSLQG
no binding: all assays above
